In PubChem BioAssay AID292 (DTP/NCI, 2004):
The list does not hold the whole screen: it gathers tests that were run many times, whatever their T/C, doses with no T/C, and many T/C values between a quarter and a half above the control. Other doses and runs of a compound stand elsewhere. T/C gives the treated animals as a percentage of the vehicle group. Some doses have a count of surviving animals in place of a T/C: the source files T/C as zero there, which appears to mark a toxic dose or a test without result, not a measured value. Some doses without a T/C left all or most animals alive at the check, yet need not have been tolerated: survival well below the control is almost never listed, so the zero probably covers shortened survival too. Survivors were counted at the toxicity check, usually on the fifth day, unless a day is given; later deaths do not show. Schedule codes are those of the source, read here as Q, the interval in days (D) or hours (H), X, the number of doses. Some doses were run more than once; the results are listed from low to high. For survival time, this PubChem deposit counts one and a half times the control or more as active, and values a quarter to a half above the control carry no call in these data; other NCI protocols may use other cut-offs. Some T/C values are followed by the survivors on the day toxicity was checked, most often the fifth; without a count, all were alive then.

Tested on: B6C3F1 mice, ip Sarcoma M5076, median survival T/C
Test: NCI In Vivo Anticancer Drug Screen. Data for tumor model Sarcoma M5076 (intraperitoneal) in B6C3F1 mice
Settings: T/C endpoint: median survival time, higher T/C = longer survival
Procedure, shortened: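 Survival measured in treated (T) and vehicle control (C) mice with transplantable tumour; result given as T divided by C.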

[1] = dose: 100.0 mg/kg/injection, schedule: Q04DX004 (ip), vehicle: saline with Tween-80
[2] = dose: 200.0 mg/kg/injection, schedule: Q04DX004 (ip), vehicle: saline with Tween-80
[3] = dose: 50.0 mg/kg/injection, schedule: Q04DX004 (ip), vehicle: saline with Tween-80
[4] = dose: 300.0 micrograms/kg/injection, schedule: Q04DX005 (ip), vehicle: saline

COc1cc([C@@H]2c3cc4c(cc3[C@H](O)[C@H]3COC(=O)[C@H]23)OCO4)cc(OC)c1OC
T/C (dose: 3.5 mg/kg/injection, schedule: Q04DX004 (ip), vehicle: saline with Tween-80): 131 % of control
T/C (dose: 9.6 mg/kg/injection, schedule: Q04DX004 (ip), vehicle: saline with Tween-80): 136 % of control
T/C (dose: 16.0 mg/kg/injection, schedule: Q04DX004 (ip), vehicle: saline with Tween-80): 137 % of control [8 of 10 alive on day 14]
survivor count (dose: 26.4 mg/kg/injection, schedule: Q04DX004 (ip), vehicle: saline with Tween-80): 4 of 10 on day 14
T/C (dose: 26.7 mg/kg/injection, schedule: Q04DX004 (ip), vehicle: saline with Tween-80): 146 % of control [9 of 10 alive on day 14]
survivor count (dose: 44.4 mg/kg/injection, schedule: Q04DX004 (ip), vehicle: saline with Tween-80): 2 of 10 on day 14
survivor count (dose: 74.0 mg/kg/injection, schedule: Q04DX004 (ip), vehicle: saline with Tween-80): 0 of 10 on day 14
survivor count (dose: 123.33 mg/kg/injection, schedule: Q04DX004 (ip), vehicle: saline with Tween-80): 0 of 10 on day 14

O=C(Nc1ccccc1[N+](=O)[O-])C1C(=O)C(=O)N(c2ccccc2[N+](=O)[O-])C1=O (centres undefined)
survivor count (dose: 400.0 mg/kg/injection, schedule: Q04DX004 (ip), vehicle: Klucel (hydroxypropylcellulose) (HPC)): 4 of 10 on day 14
survivor count (dose: 800.0 mg/kg/injection, schedule: Q04DX004 (ip), vehicle: Klucel (hydroxypropylcellulose) (HPC)): 0 of 10 on day 14

CC1OC2CC(O)C1(O)C1=C2C(O)=C(C(N)=O)C(=N)C1=O (centres undefined)
survivor count (dose: 10.0 mg/kg/injection, schedule: Q04DX004 (ip), vehicle: saline): 2 of 10 on day 14
survivor count (dose: 20.0 mg/kg/injection, schedule: Q04DX004 (ip), vehicle: saline): 0 of 10 on day 14

CC(=O)OC1C(O)C(C)OC(OC2C(OC(=O)C3CCC4C(C3)OC3(CC(OC(=O)/C=C/c5ccccc5)C(C)CO3)C43CO3)OC(C)C(O)C2OC(C)=O)C1O (centres undefined)
T/C (dose: 4.5 mg/kg/injection, schedule: Q04DX004 (ip), vehicle: saline + alcohol): 126 [9 of 10 alive on day 14] and 127 % of control
T/C (dose: 8.0 mg/kg/injection, schedule: Q01DX009 (ip), vehicle: saline + alcohol): 148 % of control
T/C (dose: 8.0 mg/kg/injection, schedule: Q04DX004 (ip), vehicle: saline + alcohol): 134 % of control
T/C (dose: 9.0 mg/kg/injection, schedule: Q04DX004 (ip), vehicle: saline + alcohol): 128 and 137 % of control
T/C (dose: 16.0 mg/kg/injection, schedule: Q01DX009 (ip), vehicle: saline + alcohol): 132 [9 of 10 alive on day 14] and 148 % of control
T/C (dose: 16.0 mg/kg/injection, schedule: Q04DX004 (ip), vehicle: saline + alcohol): 143 % of control [9 of 10 alive on day 14]
T/C (dose: 18.0 mg/kg/injection, schedule: Q04DX004 (ip), vehicle: saline + alcohol): 137 and 139 % of control
survivor count (dose: 32.0 mg/kg/injection, schedule: Q01DX009 (ip), vehicle: saline + alcohol): 1 of 10 on day 14
T/C (dose: 36.0 mg/kg/injection, schedule: Q04DX004 (ip), vehicle: saline + alcohol): 131 and 148 % of control
survivor count (dose: 64.0 mg/kg/injection, schedule: Q01DX009 (ip), vehicle: saline + alcohol): 0 of 10 on day 14
survivor count (dose: 72.0 mg/kg/injection, schedule: Q04DX004 (ip), vehicle: saline + alcohol): 1 of 10 on day 14 and 3 of 10 on day 14
survivor count (dose: 128.0 mg/kg/injection, schedule: Q01DX009 (ip), vehicle: saline + alcohol): 0 of 10 on day 14

NC(Cc1ccc[se]1)C(=O)O (centres undefined)
survivor count [1]: 0 of 5 on day 14
survivor count [2]: 0 of 4 on day 14

CC[C@](C)(O)C(=O)O[C@H]1C(=O)O[C@@H]2C[C@H]3C(C)=CC(=O)[C@@H](O)[C@]3(C)[C@H]3[C@@]4(O)OC[C@]32[C@@H]1[C@@H](C)[C@H]4O
survivor count (dose: 0.12 mg/kg/injection, schedule: Q04DX004 (ip), vehicle: saline): 6 of 10 on day 14
survivor count (dose: 0.24 mg/kg/injection, schedule: Q04DX004 (ip), vehicle: saline): 3 of 10 on day 14
survivor count (dose: 0.48 mg/kg/injection, schedule: Q04DX004 (ip), vehicle: saline): 2 of 10 on day 14
survivor count (dose: 0.5 mg/kg/injection, schedule: Q04DX004 (ip), vehicle: saline): 5 of 10 on day 9
survivor count (dose: 1.0 mg/kg/injection, schedule: Q04DX004 (ip), vehicle: saline): 5 of 10 on day 9
survivor count (dose: 2.0 mg/kg/injection, schedule: Q04DX004 (ip), vehicle: saline): 3 of 10 on day 9
survivor count (dose: 4.0 mg/kg/injection, schedule: Q04DX004 (ip), vehicle: saline): 3 of 10 on day 9

CN=C(N)N/N=C(\C)c1ccc2sc3ccc(/C(C)=N/NC(N)=NC)cc3c2c1
T/C [3]: 131 % of control
T/C [1]: 132 % of control [9 of 10 alive on day 14]
T/C [2]: 136 % of control
survivor count (dose: 400.0 mg/kg/injection, schedule: Q04DX004 (ip), vehicle: saline with Tween-80): 3 of 10 on day 14

COc1cc2cc(c1Cl)N(C)C(=O)C[C@H](OC(=O)[C@H](C)N(C)C(C)=O)[C@]1(C)O[C@H]1[C@H](C)[C@@H]1C[C@@](O)(NC(=O)O1)[C@H](OC)C=C/C=C(\C)C2
T/C (dose: 75.0 micrograms/kg/injection, schedule: Q04DX004 (ip), vehicle: saline): 133 % of control
T/C (dose: 75.0 micrograms/kg/injection, schedule: Q04DX005 (ip), vehicle: saline): 130 % of control
T/C (dose: 150.0 micrograms/kg/injection, schedule: Q04DX004 (ip), vehicle: saline): 145 % of control [9 of 10 alive on day 14]
survivor count (dose: 300.0 micrograms/kg/injection, schedule: Q04DX004 (ip), vehicle: saline): 1 of 10 on day 14
T/C [4]: 146 % of control [7 of 8 alive on day 17]
survivor count [4]: 6 of 9 on day 14
survivor count (dose: 600.0 micrograms/kg/injection, schedule: Q04DX004 (ip), vehicle: saline): 0 of 10 on day 14
survivor count (dose: 600.0 micrograms/kg/injection, schedule: Q04DX005 (ip), vehicle: saline): 0 of 10 on day 14 and 4 of 8 on day 17

N#CC(=C1C=CC(=NO)C=C1)c1ccc(Cl)cc1
survivor count (dose: 37.5 mg/kg/injection, schedule: Q04DX004 (ip), vehicle: saline with Tween-80): 10 of 10 on day 14
survivor count (dose: 75.0 mg/kg/injection, schedule: Q04DX004 (ip), vehicle: saline with Tween-80): 10 of 10 on day 14
survivor count (dose: 150.0 mg/kg/injection, schedule: Q04DX004 (ip), vehicle: saline with Tween-80): 10 of 10 on day 14
survivor count (dose: 300.0 mg/kg/injection, schedule: Q04DX004 (ip), vehicle: saline with Tween-80): 8 of 10 on day 14

O=C1NC2(CCCCC2)C(=O)N1CCN(CCCl)CCCl
T/C (dose: 1.5 mg/kg/injection, schedule: Q01DX009 (ip), vehicle: saline with Tween-80): 127 % of control [9 of 10 alive on day 14]
T/C (dose: 3.0 mg/kg/injection, schedule: Q01DX009 (ip), vehicle: saline with Tween-80): 131 and 136 % of control
T/C (dose: 4.3 mg/kg/injection, schedule: Q01DX009 (ip), vehicle: saline with Tween-80): 142 % of control
T/C (dose: 6.0 mg/kg/injection, schedule: Q01DX009 (ip), vehicle: saline with Tween-80): 149 [8 of 9 alive on day 14] and 149 % of control [9 of 10 alive on day 14]
survivor count (dose: 12.0 mg/kg/injection, schedule: Q01DX009 (ip), vehicle: saline with Tween-80): 4 of 10 on day 14
survivor count (dose: 24.0 mg/kg/injection, schedule: Q01DX009 (ip), vehicle: saline with Tween-80): 0 of 10 on day 14
survivor count (dose: 33.33 mg/kg/injection, schedule: Q01DX009 (ip), vehicle: saline with Tween-80): 3 of 10 on day 14

CNC(=O)c1ccccc1CNC(=S)Nc1cccc(C)c1
survivor count (dose: 600.0 mg/kg/injection, schedule: Q04DX004 (ip), vehicle: Klucel (hydroxypropylcellulose) (HPC)): 5 of 5 on day 14

c1ccc2c(c1)oc1cc3c(cc12)ncc1cccn13
survivor count [3]: 9 of 10 on day 14
survivor count [1]: 6 of 10 on day 14
